{
  "source": "PubChem BioAssay AID1347076",
  "about": "(National Center for Advancing Translational Sciences (NCATS), 2019)",
  "note": "Among all 400,000 compounds or so, about 13,000 (3.2%) were called active. The shares of active, inactive and inconclusive entries below differ from those in the screen. Calls come from the whole dose curve; as a rule, active = well fitted cell-killing curve with a large enough effect; inconclusive = small, poorly fitted or top-dose-only effect, or effect the other way; inactive = flat fitted curve, though single readings scatter. A potency beside an inconclusive call is a rough fit, not a confirmed value. Potency is the fitted concentration of half-maximal effect.",
  "data": [
    {"test": "qHTS assay for MDR1-selective chemotherapeutics: Primary screen using the drug-selected MDR subline cells KB-V1; note: nearly all actives have a fitted effect of over 60% in size", "conditions": "KB-V1 MDR cells viability, CellTiter-Glo, 72 h; series mostly up to 46.1 µM", "procedure,_shortened": "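KB-V1 MDR subline cells in DMEM (phenol-red free, 10% FBS) exposed to compounds in qHTS concentration series for 72 h at 37 degrees C. Viability read by CellTiter-Glo luminescence; concentration-effect curves fitted after normalization and correction.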", "values": [
      {"smiles": "O=C(CCCc1ccccc1)Nc1ccnn1C1CCN(Cc2ccccn2)CC1", "Potency": "inconclusive: 29.1 µM [cytotoxic, partial curve, poor fit]"},
      {"smiles": "CC(C)Oc1ccccc1/C=N/NC(=O)C1CCCC1", "Potency": "inconclusive: 29.1 µM [rising, single point]"},
      {"smiles": "CCN(C(=O)c1cnc(N2CCN(c3ncccn3)CC2)c2ccccc12)c1cccc(Cl)c1", "Potency": "inconclusive: 29.1 µM [cytotoxic, single point]"},
      {"smiles": "Clc1ccccc1Cn1cccc1C1=NC(Cc2ccccc2)CO1", "note": "(stereo not drawn)", "Potency": "inactive"},
      {"smiles": "CCCCN1C(=O)C2ON(c3ccccc3C)C(c3ccco3)C2C1=O", "note": "(stereo not drawn)", "Potency": "inconclusive: 23.1 µM [cytotoxic, single point]"},
      {"smiles": "O=C(NC1CCN(C(=S)NCc2ccco2)CC1)c1ccc(F)cc1", "Potency": "inconclusive: 18.4 µM [cytotoxic, single point]"},
      {"smiles": "CNc1ccc(C=C2C=CC=C2)cc1", "Potency": "inactive"},
      {"smiles": "COc1ccc(NC(=O)NNC(=O)COc2ccc3cc(Br)ccc3c2)c(OC)c1", "Potency": "inconclusive: 20.6 µM [rising, single point]"},
      {"smiles": "CCCN(CC(=O)Nc1ccccc1C)C(=O)c1ccc(S(=O)(=O)N2CCCCC2)cc1", "Potency": "inconclusive: 20.6 µM [cytotoxic, single point]"},
      {"smiles": "Cc1nc2ccccc2n1CC(=O)NC1CCCC1", "Potency": "inactive"},
      {"smiles": "CCOC(=O)c1c(C)n(C)c2ccc(OCC(O)CNC(CC)CO)cc12", "note": "(stereo not drawn)", "Potency": "inactive"},
      {"smiles": "CCc1c(C)nc2[nH]ncn2c1=O", "Potency": "inactive"},
      {"smiles": "CCCn1nnnc1-c1ccc(Cl)cc1", "Potency": "inactive"},
      {"smiles": "Clc1ccc(-n2ncc3c(NCc4ccccn4)ncnc32)cc1", "Potency": "active: 23.1 µM"},
      {"smiles": "CCN(CC)C(=O)c1cccc(-c2csc(C(C)(O)c3ccncc3)n2)c1", "note": "(stereo not drawn)", "Potency": "inactive"},
      {"smiles": "COc1ccc(CNC(=O)COc2ccc(C(=O)c3ccc(F)cc3)cc2)cc1", "Potency": "inconclusive: 29.1 µM [cytotoxic, single point]"},
      {"smiles": "CN(CCCN1CCOCC1)C(=O)c1cc(COc2ccc(F)cc2F)on1", "Potency": "inconclusive: 20.6 µM [cytotoxic, partial curve]"},
      {"smiles": "CCOC(=O)C1=C(N)Oc2ccc3ccccc3c2C1c1cccc(O)c1", "note": "(stereo not drawn)", "Potency": "inactive"},
      {"smiles": "O=C(NCCN1C(=O)S/C(=C\\c2ccc(OC(F)F)cc2)C1=O)C1=COCCO1", "Potency": "inconclusive: 29.1 µM [cytotoxic, single point]"},
      {"smiles": "Cc1sc2ncnc(N/N=C/c3cccc(O)c3)c2c1C", "Potency": "inactive"},
      {"smiles": "O=C(c1n[nH]c(=O)c2ccccc12)N1CCN(c2ccccc2Cl)CC1", "Potency": "inconclusive: 25.9 µM [cytotoxic, partial curve, poor fit]"},
      {"smiles": "COC(=O)c1ccccc1NC(=O)Nc1ccc(C(=O)N2CCCC2)cc1", "Potency": "inactive"},
      {"smiles": "Cc1cccc(NC(=O)CSc2nc3ccc(NC(=O)COc4ccc(Cl)cc4)cc3s2)c1", "Potency": "inactive"},
      {"smiles": "O=S(=O)(c1ccc(N2CCCC2)nc1)N1CCCC1", "Potency": "inconclusive: 23.1 µM [cytotoxic, single point]"},
      {"smiles": "Cc1cc(C)c(-c2csc(NC(=O)C3=COCCO3)n2)c(C)c1", "Potency": "inconclusive: 16.4 µM [cytotoxic, partial curve]"},
      {"smiles": "O=C(CN(Cc1ccc(F)cc1)S(=O)(=O)c1ccccc1)N1CCCCC1", "Potency": "inconclusive: 20.6 µM [cytotoxic, single point]"},
      {"smiles": "COc1ccc(C2CCc3cc4c(cc3C2=NOC(C)=O)OCO4)cc1OC", "note": "(stereo not drawn)", "Potency": "inconclusive: 20.6 µM [cytotoxic, single point]"},
      {"smiles": "CCCCN(C(=O)Oc1ccccc1)C1CCS(=O)(=O)C1", "note": "(stereo not drawn)", "Potency": "inconclusive: 0.651 µM [rising, full curve]"},
      {"smiles": "COc1ccc(NC(=O)c2ccccc2O)c(OC)c1", "Potency": "inactive"},
      {"smiles": "Cc1ccc2cc3cc(C(=O)N4CCN(c5cccc(C(F)(F)F)c5)CC4)sc3nc2c1", "Potency": "inconclusive: 29.1 µM [rising, partial curve, poor fit]"},
      {"smiles": "CC1CCN(S(=O)(=O)c2cccc(C(=O)NC3CCCC3)c2)CC1", "Potency": "inconclusive: 8.2 µM [cytotoxic, partial curve]"},
      {"smiles": "CCOC(=O)c1c(N)c(C#N)cn1-c1ccccc1", "Potency": "inactive"},
      {"smiles": "O=C(NCCOCCO)C(=O)Nc1c2c(nn1-c1ccc(F)cc1)CSC2", "Potency": "inactive"},
      {"smiles": "COc1ccc(S(=O)(=O)N2CCCCC2)cc1C(=O)Nc1cc(C)on1", "Potency": "inconclusive: 2.31 µM [cytotoxic, full curve, poor fit]"},
      {"smiles": "Cc1nn(Cc2ccccc2Cl)c2sc(C(=O)OC3CCCC3=O)cc12", "note": "(stereo not drawn)", "Potency": "active: 6.51 µM"},
      {"smiles": "O=C(NCCn1cc(SCc2cccc(F)c2)c2ccccc21)c1cccc(C(F)(F)F)c1", "Potency": "active: 20.6 µM"},
      {"smiles": "Cn1c(=O)c2c(nc(SCC(=O)NCc3ccco3)n2C)n(C)c1=O", "Potency": "inactive"},
      {"smiles": "COCCN(Cc1ccccc1)C(=O)c1cc(S(=O)(=O)N2CCCCCC2)ccc1OC", "Potency": "inconclusive: 6.51 µM [cytotoxic, partial curve]"},
      {"smiles": "O=C(Oc1ccc(-c2nnco2)cc1)c1ccc(Br)o1", "Potency": "inactive"},
      {"smiles": "Cc1nn2c(NCCCn3ccnc3)cc(C(C)C)nc2c1-c1ccccc1", "Potency": "inconclusive: 7.31 µM [cytotoxic, partial curve]"},
      {"smiles": "O=C(NNc1nc2cc3c(cc2s1)OCO3)c1cccc(F)c1", "Potency": "inactive"},
      {"smiles": "CC(C)OC(=O)c1cc(NC(=S)Nc2ccc([N+](=O)[O-])cc2)cc(C(=O)OC(C)C)c1", "Potency": "inconclusive: 18.4 µM [cytotoxic, single point]"},
      {"smiles": "Cc1cccc(NC(=S)NC2CC3CCCC(C2)N3Cc2cccs2)c1C", "note": "(stereo not drawn)", "Potency": "inactive"},
      {"smiles": "COc1ccc(C(=O)Cn2cc([N+](=O)[O-])nc2C)cc1", "Potency": "inconclusive: 29.1 µM [rising, single point]"},
      {"smiles": "Cn1c(N)c(C(=O)COC(=O)/C=C/c2ccccc2Cl)c(=O)n(C)c1=O", "Potency": "inactive"},
      {"smiles": "Cc1cc(SCC(=O)c2cccs2)n2nc(C)c(-c3ccc(Cl)cc3)c2n1", "Potency": "inconclusive: 29.1 µM [cytotoxic, single point]"},
      {"smiles": "CCOC(=O)c1nc2cc3n(c(CC(C)C)c-2c1C)CC(C)=C3C", "Potency": "inactive"},
      {"smiles": "O=C1CCC[C@@H]2Cc3nc4ccc(Cl)cc4cc3[C@@H]3CCN1[C@H]23", "Potency": "inconclusive: 18.4 µM [cytotoxic, single point]"},
      {"smiles": "CS(=O)(=O)N(CC(=O)NCc1ccccc1Cl)C1CCCCC1", "Potency": "inconclusive: 11.6 µM [cytotoxic, partial curve]"},
      {"smiles": "COCCN(Cc1cc2ccc(C)c(C)c2nc1Cl)C(=O)N1CCOCC1", "Potency": "inactive"},
      {"smiles": "Cc1ccc(-n2nnc(-c3nsc(NC(=O)c4ccccc4C)n3)c2C)cc1Cl", "Potency": "inconclusive: 14.6 µM [cytotoxic, single point]"},
      {"smiles": "C[C@H](NC(=O)[C@H](Cc1ccccc1)NC(=O)c1cc2cc(Cl)ccc2n1C)C(=O)O", "Potency": "inconclusive: 29.1 µM [rising, single point]"},
      {"smiles": "CCCCCn1c(=O)[nH]c2cc(C(=O)N3CCN(C(=O)OCC)CC3)ccc2c1=O", "Potency": "inconclusive: 11.6 µM [cytotoxic, partial curve]"},
      {"smiles": "CCOC(=O)c1ccc(-c2ccc(N3C(c4ccsc4)=Cc4ccc(F)cc4C3c3c[nH]c4ccc(C#N)cc34)cc2)cc1F", "note": "(stereo not drawn)", "Potency": "inconclusive: 3.26 µM [rising, full curve, poor fit]"},
      {"smiles": "COc1ccc(-c2csc(NC(=O)c3ccccc3NS(=O)(=O)c3ccc(F)c(F)c3)n2)cc1", "Potency": "active: 4.11 µM"},
      {"smiles": "C[C@@H](NC(=O)c1nc[nH]c1C(=O)N[C@@H](Cc1ccccc1)C(=O)OCc1ccccc1)c1ccccc1", "Potency": "inactive"},
      {"smiles": "CCc1nc2ccc(C(=O)NCCCN3CCCC3=O)cn2c1N(C)C(=O)c1cccc(OC)c1", "Potency": "inactive"},
      {"smiles": "CCOC(=O)c1ccc([N+](=O)[O-])c(CS(=O)(=O)c2ccc(Cl)cc2)c1", "Potency": "inactive"},
      {"smiles": "COc1ccc(-c2c3c(=O)n(C)c(=O)n(C)c3cn2-c2cccc(N)c2)cc1", "Potency": "inactive"},
      {"smiles": "CCOc1ccc(S(=O)(=O)N/N=C2/CC(c3ccccc3)Oc3ccccc32)cc1", "note": "(stereo not drawn)", "Potency": "active: 18.4 µM"},
      {"smiles": "COC(=O)c1sccc1NC(=S)N1CCCC(C)C1", "note": "(stereo not drawn)", "Potency": "inconclusive: 23.1 µM [cytotoxic, partial curve, poor fit]"},
      {"smiles": "O=C(OCC(=O)N1CCCC1)c1cc([N+](=O)[O-])ccc1Cl", "Potency": "inactive"},
      {"smiles": "Cc1c(Cl)cccc1NC(=S)NC1CCN(C(C)C)CC1", "Potency": "inconclusive: 5.8 µM [rising, partial curve]"},
      {"smiles": "CCCCCCSc1ccc([C@@H]2[C@@H]3C(=O)N(CC)C(=O)[C@@H]3[C@]3(C(=O)OC)CCCCN23)cc1", "Potency": "inconclusive: 23.1 µM [cytotoxic, partial curve]"},
      {"smiles": "Cc1noc(/C=C/N(C)C)c1S(=O)(=O)N1CCN(c2ccccc2)CC1", "Potency": "inactive"},
      {"smiles": "COc1ccc(Cc2nnc(SC)n2-c2ccc(F)cc2)cc1OC", "Potency": "inconclusive: 14.6 µM [cytotoxic, partial curve, poor fit]"},
      {"smiles": "Nc1nc(Cl)cc(N2CCC(c3cc(-c4ccc(Cl)cc4)n[nH]3)CC2)n1", "Potency": "active: 14.6 µM"},
      {"smiles": "C[C@H](NC(=O)c1nc[nH]c1C(=O)NC(c1ccccc1)c1ccccc1)C(=O)OC(C)(C)C", "Potency": "active: 8.2 µM"},
      {"smiles": "O=C(NCc1ccccn1)C(=O)NN=C1CCCCCCCCCCC1", "Potency": "inconclusive: 2.31 µM [rising, partial curve, poor fit]"},
      {"smiles": "C/C(=N\\Nc1ncnc2sc(C)c(C)c12)c1ccccn1", "Potency": "inconclusive: 25.9 µM [cytotoxic, partial curve, poor fit]"},
      {"smiles": "CCSc1nnc(NC(=O)c2cccc(S(=O)(=O)N(C)c3ccc(C)cc3)c2)s1", "Potency": "active: 14.6 µM"},
      {"smiles": "COCCNC(=O)C(=O)NNC(=O)CCc1ccccc1", "Potency": "inconclusive: 23.1 µM [cytotoxic, single point]"},
      {"smiles": "O=C(Nc1ccc(Cl)cc1)OCc1cncs1", "Potency": "inconclusive: 16.4 µM [cytotoxic, single point]"}
    ]}
  ]
}
